# Source: patent publication US10622572B2, “Organic thin-film transistor and method for manufacturing the same, material for organic thin-film transistor, composition for organic thin-film transistor, compound, and organic semiconductor film” (FUJIFILM Corporation, priority 2015, dated 2020)
# Some of these results come from one statement about several compounds together. At least one structure is not confirmed: it was looked up by name or label, or the drawing left a doubt.
# Assay: Solubility in organic solvents
# Assay type: physicochemical
# Details: in words; organic solvents (anisole, 0.1% by mass, in b280 and b309)
row,SMILES,solubility
1,"CCCCCCc1cc2c(ccc3c2ccc2c4ccc5sc(CCCCCC)cc5c4ccc32)s1 [Comparative compound 1, reference compound]",low
2,"CCCCCCc1cc2ccc3c4ccc5c(ccc6cc(CCCCCC)sc65)c4ccc3c2s1 [Comparative compound 2, reference compound]",low
